In PubChem BioAssay AID256 (DTP/NCI, 2004):
The list shows only some results of the screen, not a fair sample: it covers a few groups of compounds. Other doses and runs of a compound may be missing. T/C gives the treated animals as a percentage of the vehicle group. Some doses have a count of surviving animals in place of a T/C: the source holds a T/C of zero for them, seemingly a mark for toxic or unscored doses. Some survivor counts are full or nearly so, which does not show that the dose was tolerated: the source hardly ever lists a survival T/C far under the control, and the zero likely stands for such cases as well. Survivors were counted at the toxicity check, usually on the fifth day, unless a day is given; later deaths do not show. Schedules are NCI's codes, read here as Q, the interval in days (D) or hours (H), X, the number of doses. For survival time, this PubChem deposit counts one and a half times the control or more as active, and values a quarter to a half above the control carry no call in these data; other NCI protocols may use other cut-offs. Some doses were run more than once; the values are given in rising order. Some T/C values are marked as having no survivor count here; that says nothing about deaths at the dose. Some T/C values carry the count of animals alive at the toxicity check (mostly the fifth day); where neither a count nor a note follows, no animal had died by that day.

Test system: CD2F1 mice, L1210 leukemia ip, survival T/C
Assay: NCI In Vivo Anticancer Drug Screen. Data for tumor model L1210 Leukemia (intraperitoneal) in CD2F1 (CDF1) mice
Settings: higher T/C = longer survival
Outline: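 Activity against a transplanted murine tumor was judged by comparing the compound group with a vehicle group. The outcome in the treated animals was divided by that in the controls.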

[1] = T/C endpoint: mean survival time, dose: 100.0 mg/kg/injection, schedule: Q01DX009 (ip), vehicle: saline with Tween-80
[2] = T/C endpoint: mean survival time, dose: 200.0 mg/kg/injection, schedule: Q01DX009 (ip), vehicle: saline with Tween-80
[3] = T/C endpoint: mean survival time, dose: 400.0 mg/kg/injection, schedule: Q01DX009 (ip), vehicle: saline with Tween-80
[4] = T/C endpoint: mean survival time, dose: 100.0 mg/kg/injection, schedule: Q04DX003 (ip), vehicle: Klucel (hydroxypropylcellulose) (HPC)
[5] = T/C endpoint: mean survival time, dose: 200.0 mg/kg/injection, schedule: Q04DX003 (ip), vehicle: Klucel (hydroxypropylcellulose) (HPC)
[6] = T/C endpoint: mean survival time, dose: 400.0 mg/kg/injection, schedule: Q04DX003 (ip), vehicle: Klucel (hydroxypropylcellulose) (HPC)

## CCCCO[P+](=O)OCCCC
[1]
  T/C: 95 % of control
[2]
  T/C: 97 % of control
[3]
  survivor count: 3 of 6

## Cc1ccc(N(CCCl)CCCl)cc1C
T/C endpoint: mean survival time, dose: 6.25 mg/kg/injection, schedule: Q01DX009 (ip), vehicle: Klucel (hydroxypropylcellulose) (HPC)
  T/C: 102 % of control
T/C endpoint: mean survival time, dose: 12.5 mg/kg/injection, schedule: Q01DX009 (ip), vehicle: Klucel (hydroxypropylcellulose) (HPC)
  T/C: 103 % of control
T/C endpoint: mean survival time, dose: 25.0 mg/kg/injection, schedule: Q01DX009 (ip), vehicle: Klucel (hydroxypropylcellulose) (HPC)
  T/C: 103 % of control
T/C endpoint: mean survival time, dose: 50.0 mg/kg/injection, schedule: Q01DX009 (ip), vehicle: Klucel (hydroxypropylcellulose) (HPC)
  T/C: 108 % of control
T/C endpoint: mean survival time, dose: 100.0 mg/kg/injection, schedule: Q01DX009 (ip), vehicle: Klucel (hydroxypropylcellulose) (HPC)
  T/C: 103 % of control
T/C endpoint: mean survival time, dose: 200.0 mg/kg/injection, schedule: Q01DX009 (ip), vehicle: Klucel (hydroxypropylcellulose) (HPC)
  survivor count: 8 of 8

## CCN(CCCl)CCOc1ccc([N+](=O)[O-])cc1
T/C endpoint: mean survival time, dose: 4.0 mg/kg/injection, schedule: Q01DX009 (ip), vehicle: saline with Tween-80
  T/C: 100 % of control
T/C endpoint: mean survival time, dose: 6.0 mg/kg/injection, schedule: Q01DX009 (ip), vehicle: saline with Tween-80
  T/C: 105 % of control
T/C endpoint: mean survival time, dose: 9.0 mg/kg/injection, schedule: Q01DX009 (ip), vehicle: saline with Tween-80
  T/C: 97 % of control
[1]
  survivor count: 2 of 6
[2]
  survivor count: 0 of 6
[3]
  survivor count: 0 of 6

## COc1ccc2ccccc2n1.O=[N+]([O-])c1cc([N+](=O)[O-])c(O)c([N+](=O)[O-])c1
T/C endpoint: mean survival time, dose: 100.0 mg/kg/injection, schedule: Q04DX003 (ip), vehicle: saline
  T/C: 88 % of control [survivor count not shown]
T/C endpoint: mean survival time, dose: 200.0 mg/kg/injection, schedule: Q04DX003 (ip), vehicle: saline
  T/C: 86 % of control [survivor count not shown]
T/C endpoint: mean survival time, dose: 400.0 mg/kg/injection, schedule: Q04DX003 (ip), vehicle: saline
  T/C: 86 % of control [survivor count not shown]

## O=P1(Cl)OC(c2ccccc2)=CCN1CCCl (stereo not given)
T/C endpoint: median survival time, dose: 31.25 mg/kg/injection, schedule: Q01DX001 (ip), vehicle: distilled water + Tween-80
  T/C: 116 % of control
T/C endpoint: median survival time, dose: 62.5 mg/kg/injection, schedule: Q01DX001 (ip), vehicle: distilled water + Tween-80
  T/C: 101 % of control
T/C endpoint: median survival time, dose: 125.0 mg/kg/injection, schedule: Q01DX001 (ip), vehicle: distilled water + Tween-80
  T/C: 101 % of control
T/C endpoint: median survival time, dose: 250.0 mg/kg/injection, schedule: Q01DX001 (ip), vehicle: distilled water + Tween-80
  T/C: 104 % of control [5 of 6 alive]
T/C endpoint: median survival time, dose: 500.0 mg/kg/injection, schedule: Q01DX001 (ip), vehicle: distilled water + Tween-80
  survivor count: 0 of 6

## COc1cc(OC)c(Nc2c([N+](=O)[O-])cc([N+](=O)[O-])cc2[N+](=O)[O-])cc1Cl
[4]
  T/C: 105 % of control [5 of 6 alive]
[5]
  T/C: 100 % of control
[6]
  T/C: 96 % of control

## Cc1cc([N+](=O)[O-])cc([N+](=O)[O-])c1O
T/C endpoint: mean survival time, dose: 25.0 mg/kg/injection, schedule: Q01DX009 (ip), vehicle: saline
  survivor count: 6 of 6
T/C endpoint: mean survival time, dose: 50.0 mg/kg/injection, schedule: Q01DX009 (ip), vehicle: saline
  T/C: 92 % of control [4 of 6 alive]
T/C endpoint: mean survival time, dose: 100.0 mg/kg/injection, schedule: Q01DX009 (ip), vehicle: saline
  survivor count: 0 of 6

## O=C(CF)Nc1ccc(N(CCCl)CCCl)cc1
T/C endpoint: mean survival time, dose: 10.0 mg/kg/injection, schedule: Q04DX003 (ip), vehicle: Klucel (hydroxypropylcellulose) (HPC)
  T/C: 117 and 119 % of control
T/C endpoint: mean survival time, dose: 20.0 mg/kg/injection, schedule: Q04DX003 (ip), vehicle: Klucel (hydroxypropylcellulose) (HPC)
  T/C: 127 and 143 % of control
T/C endpoint: mean survival time, dose: 40.0 mg/kg/injection, schedule: Q04DX003 (ip), vehicle: Klucel (hydroxypropylcellulose) (HPC)
  T/C: 139 [5 of 6 alive] and 140 % of control [5 of 6 alive]
[4]
  survivor count: 0 of 6
[5]
  survivor count: 0 of 6
[6]
  survivor count: 0 of 6
